From patent US11541120B2, “Phosphonium-based ionic drug conjugates” (Anthos Partners, LP, priority 2017, dated 2023) come the findings set out here.

The nature of data set [1]: Caco-2 cell permeability. The conditions noted are these: human. A general note: Passage across Caco-2 layers is used to estimate intestinal permeability.
Data set [2] can be described thus: Water solubility of PBICs. Format: physicochemical. As for the experimental part:
The water solubilties and partition coefficients of the PBICs were measured and compared to the values of the therapeutic agent by itself. To determine the partition coefficient Log D7.4 data provided in Table 2, a solution of the compound or conjugate was prepared in aqueous phosphate buffered saline (PBS) at a concentration of 100 micromolar (μM). The PBS solution was shaken with octanol. Thus, in Table 2, Log D7.4=Log (concentration in octanol/concentration in aqueous phosphate buffered saline (PBS))=Log[(initial concentration in PBS−final concentration in PBS)/final concentration in PBS], as the concentration in octanol is derived from the loss of compound from the aqueous PBS layer.

For orientation: Papp A→B means the apparent permeability from the apical to the basolateral side of a cell layer. The term Papp B→A denotes the apparent permeability from the basolateral to the apical side of a cell layer.

Turning to `NS(=O)(=O)c1cc(C(=O)O)c(NCc2ccco2)cc1Cl` [Furosemide, reference compound], in data set [1], the Papp A→B was 0.155 ×10⁻⁶ cm/s and the Papp B→A was 9.95 ×10⁻⁶ cm/s.

On to `COC1=C(OC)C(=O)C(CCCCCCCCCC[P+](c2ccccc2)(c2ccccc2)c2ccccc2)=C(C)C1=O.NS(=O)(=O)c1cc(C(=O)[O-])c(NCc2ccco2)cc1Cl` [Furosemide-MitoQ, Furosemide-MitoQ conjugate], for which the “Water solubility, MitoQ Conjugate” value in data set [2] is “Insoluble”.
